Test results as given in publication PMC12851572.
No constants are given. Whether binding was seen depends on the method and setting. Binding seen in cells or lysates may run through a third protein. These calls come from enrichment with a bait or labelling near it, and not all partners need be listed. Tags and fused reporters may be left off the sequences shown.

The chains behind the UniProt entries cited, without tags or fusion partners.
UniProt Q14974: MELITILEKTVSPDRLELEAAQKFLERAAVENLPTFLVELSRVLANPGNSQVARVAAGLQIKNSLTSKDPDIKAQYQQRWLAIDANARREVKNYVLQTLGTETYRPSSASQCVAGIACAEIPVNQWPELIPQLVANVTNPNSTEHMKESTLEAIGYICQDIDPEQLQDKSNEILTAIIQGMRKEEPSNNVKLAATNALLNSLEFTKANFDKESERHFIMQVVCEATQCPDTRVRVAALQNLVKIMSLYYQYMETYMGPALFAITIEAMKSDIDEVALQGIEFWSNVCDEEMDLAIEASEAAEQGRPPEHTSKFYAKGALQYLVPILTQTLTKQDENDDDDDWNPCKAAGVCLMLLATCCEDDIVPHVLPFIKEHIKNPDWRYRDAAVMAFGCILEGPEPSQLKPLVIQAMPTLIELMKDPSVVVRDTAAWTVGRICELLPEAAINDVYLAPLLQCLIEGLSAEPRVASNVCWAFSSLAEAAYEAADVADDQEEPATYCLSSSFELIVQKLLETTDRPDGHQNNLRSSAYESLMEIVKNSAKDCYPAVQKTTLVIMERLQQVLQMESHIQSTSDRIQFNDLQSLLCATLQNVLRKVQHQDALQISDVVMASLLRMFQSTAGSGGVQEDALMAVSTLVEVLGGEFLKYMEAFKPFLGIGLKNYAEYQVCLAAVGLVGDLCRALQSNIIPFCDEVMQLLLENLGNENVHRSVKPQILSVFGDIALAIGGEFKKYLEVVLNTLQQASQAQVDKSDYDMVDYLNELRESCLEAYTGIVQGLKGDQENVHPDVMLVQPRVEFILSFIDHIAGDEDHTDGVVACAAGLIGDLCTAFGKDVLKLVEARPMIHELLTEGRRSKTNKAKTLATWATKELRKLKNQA
UniProt O75947: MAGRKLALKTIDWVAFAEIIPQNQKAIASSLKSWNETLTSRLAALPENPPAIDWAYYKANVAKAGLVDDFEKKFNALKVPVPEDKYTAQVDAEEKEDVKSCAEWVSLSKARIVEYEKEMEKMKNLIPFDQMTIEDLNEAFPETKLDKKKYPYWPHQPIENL
UniProt P62318: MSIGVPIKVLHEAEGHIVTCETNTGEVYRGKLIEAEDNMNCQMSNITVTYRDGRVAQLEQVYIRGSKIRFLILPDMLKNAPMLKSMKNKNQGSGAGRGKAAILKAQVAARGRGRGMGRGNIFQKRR
UniProt Q99459: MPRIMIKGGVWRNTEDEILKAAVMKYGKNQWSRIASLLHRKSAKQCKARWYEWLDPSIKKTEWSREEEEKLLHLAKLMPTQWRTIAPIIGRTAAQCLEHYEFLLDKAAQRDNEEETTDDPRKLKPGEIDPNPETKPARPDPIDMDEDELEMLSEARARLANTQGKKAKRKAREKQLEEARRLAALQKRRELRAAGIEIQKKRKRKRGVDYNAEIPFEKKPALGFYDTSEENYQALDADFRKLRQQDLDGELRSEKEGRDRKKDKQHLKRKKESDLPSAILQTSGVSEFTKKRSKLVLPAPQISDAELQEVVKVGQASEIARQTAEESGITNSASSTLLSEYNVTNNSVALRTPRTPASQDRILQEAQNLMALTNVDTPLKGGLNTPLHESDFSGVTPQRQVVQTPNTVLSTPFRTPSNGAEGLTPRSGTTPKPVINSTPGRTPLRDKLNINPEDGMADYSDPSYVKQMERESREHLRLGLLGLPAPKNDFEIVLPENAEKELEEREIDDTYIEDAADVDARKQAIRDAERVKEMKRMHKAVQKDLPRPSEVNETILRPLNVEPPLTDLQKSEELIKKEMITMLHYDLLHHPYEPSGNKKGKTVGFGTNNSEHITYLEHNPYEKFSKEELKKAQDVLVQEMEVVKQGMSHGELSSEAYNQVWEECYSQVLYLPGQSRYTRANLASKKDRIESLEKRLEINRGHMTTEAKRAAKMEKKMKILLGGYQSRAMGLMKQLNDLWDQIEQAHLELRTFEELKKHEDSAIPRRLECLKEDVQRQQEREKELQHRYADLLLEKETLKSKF
UniProt P35580: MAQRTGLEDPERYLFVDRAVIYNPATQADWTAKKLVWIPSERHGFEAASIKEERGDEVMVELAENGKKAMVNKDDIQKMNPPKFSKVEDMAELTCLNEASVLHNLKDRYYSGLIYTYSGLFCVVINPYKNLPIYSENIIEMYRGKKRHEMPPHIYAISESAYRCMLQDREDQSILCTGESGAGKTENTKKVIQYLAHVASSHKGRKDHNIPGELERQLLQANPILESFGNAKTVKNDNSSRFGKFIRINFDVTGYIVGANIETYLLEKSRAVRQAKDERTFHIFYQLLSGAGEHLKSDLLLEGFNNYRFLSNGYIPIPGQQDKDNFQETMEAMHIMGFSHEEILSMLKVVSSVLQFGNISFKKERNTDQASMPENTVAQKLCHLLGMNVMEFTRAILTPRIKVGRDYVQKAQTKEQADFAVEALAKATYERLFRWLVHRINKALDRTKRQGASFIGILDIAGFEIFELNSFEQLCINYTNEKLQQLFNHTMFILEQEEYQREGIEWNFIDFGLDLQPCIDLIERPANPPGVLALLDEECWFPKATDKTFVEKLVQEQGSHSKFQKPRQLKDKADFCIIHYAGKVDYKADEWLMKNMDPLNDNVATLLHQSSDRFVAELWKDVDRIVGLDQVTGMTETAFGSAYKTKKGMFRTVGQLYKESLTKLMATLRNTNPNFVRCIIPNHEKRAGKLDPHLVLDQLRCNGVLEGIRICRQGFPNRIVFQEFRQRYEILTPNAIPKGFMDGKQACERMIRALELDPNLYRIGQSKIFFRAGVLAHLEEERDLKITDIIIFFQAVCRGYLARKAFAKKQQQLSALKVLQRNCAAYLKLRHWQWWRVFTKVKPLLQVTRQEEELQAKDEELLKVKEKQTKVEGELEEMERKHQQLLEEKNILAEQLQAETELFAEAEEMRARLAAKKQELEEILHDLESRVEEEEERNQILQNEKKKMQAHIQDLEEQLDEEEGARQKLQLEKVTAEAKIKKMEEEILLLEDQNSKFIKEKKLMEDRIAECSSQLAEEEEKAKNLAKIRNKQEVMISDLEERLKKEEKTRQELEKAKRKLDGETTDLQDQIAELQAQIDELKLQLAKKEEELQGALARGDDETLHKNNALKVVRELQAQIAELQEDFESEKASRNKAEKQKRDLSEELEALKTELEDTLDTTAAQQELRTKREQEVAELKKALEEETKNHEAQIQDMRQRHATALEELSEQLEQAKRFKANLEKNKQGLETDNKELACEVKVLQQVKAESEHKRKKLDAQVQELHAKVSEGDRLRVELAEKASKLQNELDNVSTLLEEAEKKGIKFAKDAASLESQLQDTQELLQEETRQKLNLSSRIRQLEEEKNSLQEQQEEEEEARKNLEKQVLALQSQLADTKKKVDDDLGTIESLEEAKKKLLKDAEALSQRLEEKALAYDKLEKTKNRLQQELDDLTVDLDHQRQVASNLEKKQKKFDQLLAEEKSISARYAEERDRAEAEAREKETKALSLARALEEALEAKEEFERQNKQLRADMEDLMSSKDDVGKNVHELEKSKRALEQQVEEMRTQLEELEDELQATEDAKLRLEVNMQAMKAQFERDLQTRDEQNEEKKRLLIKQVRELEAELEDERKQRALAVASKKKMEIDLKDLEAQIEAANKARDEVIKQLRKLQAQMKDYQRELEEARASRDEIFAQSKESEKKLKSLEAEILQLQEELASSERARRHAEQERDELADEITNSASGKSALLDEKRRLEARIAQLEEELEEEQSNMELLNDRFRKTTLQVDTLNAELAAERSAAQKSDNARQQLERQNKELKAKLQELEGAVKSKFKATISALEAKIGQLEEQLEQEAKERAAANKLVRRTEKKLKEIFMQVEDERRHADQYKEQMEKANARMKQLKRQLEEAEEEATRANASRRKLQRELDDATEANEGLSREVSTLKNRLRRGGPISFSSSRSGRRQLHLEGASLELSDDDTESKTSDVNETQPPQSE

T1: U6 small nuclear RNA (snRNA) biogenesis phosphodiesterase 1 (USB1), wild type, C-terminal HA tag (human) (UniProt Q9BQ65)
T1 sequence: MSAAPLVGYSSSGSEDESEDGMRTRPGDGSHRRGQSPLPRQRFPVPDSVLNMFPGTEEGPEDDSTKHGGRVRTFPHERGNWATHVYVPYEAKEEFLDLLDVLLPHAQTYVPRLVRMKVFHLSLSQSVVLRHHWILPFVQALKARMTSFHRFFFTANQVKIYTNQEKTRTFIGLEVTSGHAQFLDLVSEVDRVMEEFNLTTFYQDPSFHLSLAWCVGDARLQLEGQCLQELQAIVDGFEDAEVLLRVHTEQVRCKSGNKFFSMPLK


What follows are molecules tested against T1, U6 small nuclear RNA (snRNA) biogenesis phosphodiesterase 1 (USB1), wild type, C-terminal HA tag (human) (assay: affinity purification with mass spectrometry; lysates (600 ug protein) of HEK293T cells expressing USB1-HA variants or empty vector, Pierce anti-HA magnetic beads overnight at 4 C, IP Lysis/Wash Buffer; eluates digested with trypsin, nLC-MS/MS (DIA-PASEF); n = 4).

Row | binding | Molecule
1 | binds | KPNB1 (from UniProt Q14974 1-876)
2 | binds | ATP5PD (from UniProt O75947 1-161)
3 | binds | SNRPD3 (from UniProt P62318 1-126)
4 | binds | CDC5L (from UniProt Q99459 1-802)
5 | binds | MYH10 (from UniProt P35580 1-1976)
6 | binds | RBM27 (protein, UniProt Q9P2N5 1-1060) MLIEDVDALKSWLAKLLEPICDADPSALANYVVALVKKDKPEKELKAFCADQLDVFLQKETSGFVDKLFESLYTKNYLPLLEPVKPEPKPLVQEKEEIKEEVFQEPAEEERDGRKKKYPSPQKTRSESSERRTREKKREDGKWRDYDRYYERNELYREKYDWRRGRSKSRSKSRGLSRSRSRSRGRSKDRDPNRNVEHRERSKFKSERNDLESSYVPVSAPPPNSSEQYSSGAQSIPSTVTVIAPAHHSENTTESWSNYYNNHSSSNSFGRNLPPKRRCRDYDERGFCVLGDLCQFDHGNDPLVVDEVALPSMIPFPPPPPGLPPPPPPGMLMPPMPGPGPGPGPGPGPGPGPGPGPGHSMRLPVPQGHGQPPPSVVLPIPRPPITQSSLINSRDQPGTSAVPNLASVGTRLPPPLPQNLLYTVSERQPMYSREHGAAASERLQLGTPPPLLAARLVPPRNLMGSSIGYHTSVSSPTPLVPDTYEPDGYNPEAPSITSSGRSQYRQFFSRTQTQRPNLIGLTSGDMDVNPRAANIVIQTEPPVPVSINSNITRVVLEPDSRKRAMSGLEGPLTKKPWLGKQGNNNQNKPGFLRKNQYTNTKLEVKKIPQELNNITKLNEHFSKFGTIVNIQVAFKGDPEAALIQYLTNEEARKAISSTEAVLNNRFIRVLWHRENNEQPTLQSSAQLLLQQQQTLSHLSQQHHHLPQHLHQQQVLVAQSAPSTVHGGIQKMMSKPQTSGAYVLNKVPVKHRLGHAGGNQSDASHLLNQSGGAGEDCQIFSTPGHPKMIYSSSNLKTPSKLCSGSKSHDVQEVLKKKQEAMKLQQDMRKKRQEVLEKQIECQKMLISKLEKNKNMKPEERANIMKTLKELGEKISQLKDELKTSSAVSTPSKVKTKTEAQKELLDTELDLHKRLSSGEDTTELRKKLSQLQVEAARLGILPVGRGKTMSSQGRGRGRGRGGRGRGSLNHMVVDHRPKALTVGGFIEEEKEDLLQHFSTANQGPKFKDRRLQISWHKPKVPSISTETEEEEVKEEETETSDLFLPDDDDEDEDEYESRSWRR
7 | binds | RBM22 (protein, UniProt Q9NW64 1-420) MATSLGSNTYNRQNWEDADFPILCQTCLGENPYIRMTKEKYGKECKICARPFTVFRWCPGVRMRFKKTEVCQTCSKLKNVCQTCLLDLEYGLPIQVRDAGLSFKDDMPKSDVNKEYYTQNMEREISNSDGTRPVGMLGKATSTSDMLLKLARTTPYYKRNRPHICSFWVKGECKRGEECPYRHEKPTDPDDPLADQNIKDRYYGINDPVADKLLKRASTMPRLDPPEDKTITTLYVGGLGDTITETDLRNHFYQFGEIRTITVVQRQQCAFIQFATRQAAEVAAEKSFNKLIVNGRRLNVKWGRSQAARGKEKEKDGTTDSGIKLEPVPGLPGALPPPPAAEEEASANYFNLPPSGPPAVVNIALPPPPGIAPPPPPGFGPHMFHPMGPPPPFMRAPGPIHYPSQDPQRMGAHAGKHSSP
8 | binds | TMED3 (protein, UniProt Q9Y3Q3 24-217) PCGAELTFELPDNAKQCFHEEVEQGVKFSLDYQVITGGHYDVDCYVEDPQGNTIYRETKKQYDSFTYRAEVKGVYQFCFSNEFSTFSHKTVYFDFQVGDEPPILPDMGNRVTALTQMESACVTIHEALKTVIDSQTHYRLREAQDRARAEDLNSRVSYWSVGETIALFVVSFSQVLLLKSFFTEKRPISRAVHS
9 | binds | PLRG1 (protein, UniProt O43660 1-514) MVEEVQKHSVHTLVFRSLKRTHDMFVADNGKPVPLDEESHKRKMAIKLRNEYGPVLHMPTSKENLKEKGPQNATDSYVHKQYPANQGQEVEYFVAGTHPYPPGPGVALTADTKIQRMPSESAAQSLAVALPLQTKADANRTAPSGSEYRHPGASDRPQPTAMNSIVMETGNTKNSALMAKKAPTMPKPQWHPPWKLYRVISGHLGWVRCIAVEPGNQWFVTGSADRTIKIWDLASGKLKLSLTGHISTVRGVIVSTRSPYLFSCGEDKQVKCWDLEYNKVIRHYHGHLSAVYGLDLHPTIDVLVTCSRDSTARIWDVRTKASVHTLSGHTNAVATVRCQAAEPQIITGSHDTTIRLWDLVAGKTRVTLTNHKKSVRAVVLHPRHYTFASGSPDNIKQWKFPDGSFIQNLSGHNAIINTLTVNSDGVLVSGADNGTMHLWDWRTGYNFQRVHAAVQPGSLDSESGIFACAFDQSESRLLTAEADKTIKVYREDDTATEETHPVSWKPEIIKRKRF
10 | binds | ATP5PB (protein, UniProt P24539 43-256) PVPPLPEYGGKVRYGLIPEEFFQFLYPKTGVTGPYVLGTGLILYALSKEIYVISAETFTALSVLGVMVYGIKKYGPFVADFADKLNEQKLAQLEEAKQASIQHIQNAIDTEKSQQALVQKRHYLFDVQRNNIAMALEVTYRERLYRVYKEVKNRLDYHISVQNMMRRKEQEHMINWVEKHVVQSISTQQEKETIAKCIADLKLLAKKAQAQPVM
11 | binds | DHX8 (protein, UniProt Q14562 1-1220) MAVAVAMAGALIGSEPGPAEELAKLEYLSLVSKVCTELDNHLGINDKDLAEFVISLAEKNTTFDTFKASLVKNGAEFTDSLISNLLRLIQTMRPPAKPSTSKDPVVKPKTEKEKLKELFPVLCQPDNPSVRTMLDEDDVKVAVDVLKELEALMPSAAGQEKQRDAEHRDRTKKKKRSRSRDRNRDRDRDRERNRDRDHKRRHRSRSRSRSRTRERNKVKSRYRSRSRSQSPPKDRKDRDKYGERNLDRWRDKHVDRPPPEEPTIGDIYNGKVTSIMQFGCFVQLEGLRKRWEGLVHISELRREGRVANVADVVSKGQRVKVKVLSFTGTKTSLSMKDVDQETGEDLNPNRRRNLVGETNEETSMRNPDRPTHLSLVSAPEVEDDSLERKRLTRISDPEKWEIKQMIAANVLSKEEFPDFDEETGILPKVDDEEDEDLEIELVEEEPPFLRGHTKQSMDMSPIKIVKNPDGSLSQAAMMQSALAKERRELKQAQREAEMDSIPMGLNKHWVDPLPDAEGRQIAANMRGIGMMPNDIPEWKKHAFGGNKASYGKKTQMSILEQRESLPIYKLKEQLVQAVHDNQILIVIGETGSGKTTQITQYLAEAGYTSRGKIGCTQPRRVAAMSVAKRVSEEFGCCLGQEVGYTIRFEDCTSPETVIKYMTDGMLLRECLIDPDLTQYAIIMLDEAHERTIHTDVLFGLLKKTVQKRQDMKLIVTSATLDAVKFSQYFYEAPIFTIPGRTYPVEILYTKEPETDYLDASLITVMQIHLTEPPGDILVFLTGQEEIDTACEILYERMKSLGPDVPELIILPVYSALPSEMQTRIFDPAPPGSRKVVIATNIAETSLTIDGIYYVVDPGFVKQKVYNSKTGIDQLVVTPISQAQAKQRAGRAGRTGPGKCYRLYTERAYRDEMLTTNVPEIQRTNLASTVLSLKAMGINDLLSFDFMDAPPMETLITAMEQLYTLGALDDEGLLTRLGRRMAEFPLEPMLCKMLIMSVHLGCSEEMLTIVSMLSVQNVFYRPKDKQALADQKKAKFHQTEGDHLTLLAVYNSWKNNKFSNPWCYENFIQARSLRRAQDIRKQMLGIMDRHKLDVVSCGKSTVRVQKAICSGFFRNAAKKDPQEGYRTLIDQQVVYIHPSSALFNRQPEWVVYHELVLTTKEYMREVTTIDPRWLVEFAPAFFKVSDPTKLSKQKKQQRLEPLYNRYEEPNAWRISRAFRRR
